Data as given in the supplement of paper PMC10849652.
The other results are listed elsewhere or left out.

Protein sequences, listed by entry. Tags and fused reporters are not part of them. Lines headed by an entry give the natural chain unless they say otherwise; changes in a name come on top.
UniProt P02814: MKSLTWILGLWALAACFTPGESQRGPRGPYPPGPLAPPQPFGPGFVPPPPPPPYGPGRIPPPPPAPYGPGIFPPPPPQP
UniProt B2RUZ4: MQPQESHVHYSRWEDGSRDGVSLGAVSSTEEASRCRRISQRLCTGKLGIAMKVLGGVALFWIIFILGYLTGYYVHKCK
UniProt Q9BT81: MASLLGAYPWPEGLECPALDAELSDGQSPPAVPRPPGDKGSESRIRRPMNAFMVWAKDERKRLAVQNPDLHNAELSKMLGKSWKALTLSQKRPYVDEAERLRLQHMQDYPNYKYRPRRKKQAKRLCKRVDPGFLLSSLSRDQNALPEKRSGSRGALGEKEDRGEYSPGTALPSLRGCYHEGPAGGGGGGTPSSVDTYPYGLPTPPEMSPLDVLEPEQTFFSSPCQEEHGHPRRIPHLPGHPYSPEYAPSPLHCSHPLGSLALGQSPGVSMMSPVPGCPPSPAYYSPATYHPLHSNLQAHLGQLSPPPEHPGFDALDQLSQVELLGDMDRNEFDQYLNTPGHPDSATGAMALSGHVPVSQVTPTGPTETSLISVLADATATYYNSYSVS
UniProt Q5VWJ9: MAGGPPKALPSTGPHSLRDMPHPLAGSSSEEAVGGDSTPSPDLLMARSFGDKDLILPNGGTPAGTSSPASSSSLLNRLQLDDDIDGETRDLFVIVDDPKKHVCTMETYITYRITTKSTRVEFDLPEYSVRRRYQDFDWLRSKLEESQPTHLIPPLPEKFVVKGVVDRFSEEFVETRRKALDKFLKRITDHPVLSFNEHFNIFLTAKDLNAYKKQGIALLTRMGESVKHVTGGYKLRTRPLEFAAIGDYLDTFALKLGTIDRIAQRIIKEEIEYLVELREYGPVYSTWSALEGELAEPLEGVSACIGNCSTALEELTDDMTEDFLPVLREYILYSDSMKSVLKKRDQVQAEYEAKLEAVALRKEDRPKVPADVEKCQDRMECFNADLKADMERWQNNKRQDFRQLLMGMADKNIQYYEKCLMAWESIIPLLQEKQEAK
UniProt O95149, whole entry, looked up: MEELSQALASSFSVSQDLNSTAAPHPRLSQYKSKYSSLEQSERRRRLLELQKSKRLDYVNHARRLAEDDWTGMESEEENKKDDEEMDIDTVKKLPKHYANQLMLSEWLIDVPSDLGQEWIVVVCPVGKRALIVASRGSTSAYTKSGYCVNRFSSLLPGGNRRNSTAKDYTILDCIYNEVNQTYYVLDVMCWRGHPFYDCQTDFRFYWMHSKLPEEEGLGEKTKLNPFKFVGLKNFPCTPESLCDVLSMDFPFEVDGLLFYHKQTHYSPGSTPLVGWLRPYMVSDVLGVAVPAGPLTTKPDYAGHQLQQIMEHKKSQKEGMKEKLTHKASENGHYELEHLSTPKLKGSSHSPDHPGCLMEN
UniProt Q8WVI0: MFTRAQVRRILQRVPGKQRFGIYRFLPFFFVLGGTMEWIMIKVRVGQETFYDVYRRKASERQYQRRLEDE
UniProt Q8IYR2: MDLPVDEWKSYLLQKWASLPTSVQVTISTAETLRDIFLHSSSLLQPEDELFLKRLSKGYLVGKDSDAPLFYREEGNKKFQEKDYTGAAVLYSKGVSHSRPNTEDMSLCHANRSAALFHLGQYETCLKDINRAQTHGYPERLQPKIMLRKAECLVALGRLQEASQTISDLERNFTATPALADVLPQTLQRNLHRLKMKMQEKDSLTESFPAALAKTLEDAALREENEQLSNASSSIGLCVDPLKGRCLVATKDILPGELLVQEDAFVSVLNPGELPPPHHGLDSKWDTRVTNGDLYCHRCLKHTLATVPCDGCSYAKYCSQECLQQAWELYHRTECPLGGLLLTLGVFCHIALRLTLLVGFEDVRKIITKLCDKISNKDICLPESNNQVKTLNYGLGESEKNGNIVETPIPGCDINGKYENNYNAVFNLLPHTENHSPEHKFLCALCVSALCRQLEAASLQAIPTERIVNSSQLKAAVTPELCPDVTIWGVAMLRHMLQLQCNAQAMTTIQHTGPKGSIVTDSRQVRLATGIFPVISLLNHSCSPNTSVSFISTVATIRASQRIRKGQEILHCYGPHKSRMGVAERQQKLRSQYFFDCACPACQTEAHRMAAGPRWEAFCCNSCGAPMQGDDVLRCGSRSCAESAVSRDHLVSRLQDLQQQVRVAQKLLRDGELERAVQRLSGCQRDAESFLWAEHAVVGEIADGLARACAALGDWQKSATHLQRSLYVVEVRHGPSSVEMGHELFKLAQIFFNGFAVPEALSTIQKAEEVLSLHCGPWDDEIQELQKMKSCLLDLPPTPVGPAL
UniProt P51532, whole entry, looked up: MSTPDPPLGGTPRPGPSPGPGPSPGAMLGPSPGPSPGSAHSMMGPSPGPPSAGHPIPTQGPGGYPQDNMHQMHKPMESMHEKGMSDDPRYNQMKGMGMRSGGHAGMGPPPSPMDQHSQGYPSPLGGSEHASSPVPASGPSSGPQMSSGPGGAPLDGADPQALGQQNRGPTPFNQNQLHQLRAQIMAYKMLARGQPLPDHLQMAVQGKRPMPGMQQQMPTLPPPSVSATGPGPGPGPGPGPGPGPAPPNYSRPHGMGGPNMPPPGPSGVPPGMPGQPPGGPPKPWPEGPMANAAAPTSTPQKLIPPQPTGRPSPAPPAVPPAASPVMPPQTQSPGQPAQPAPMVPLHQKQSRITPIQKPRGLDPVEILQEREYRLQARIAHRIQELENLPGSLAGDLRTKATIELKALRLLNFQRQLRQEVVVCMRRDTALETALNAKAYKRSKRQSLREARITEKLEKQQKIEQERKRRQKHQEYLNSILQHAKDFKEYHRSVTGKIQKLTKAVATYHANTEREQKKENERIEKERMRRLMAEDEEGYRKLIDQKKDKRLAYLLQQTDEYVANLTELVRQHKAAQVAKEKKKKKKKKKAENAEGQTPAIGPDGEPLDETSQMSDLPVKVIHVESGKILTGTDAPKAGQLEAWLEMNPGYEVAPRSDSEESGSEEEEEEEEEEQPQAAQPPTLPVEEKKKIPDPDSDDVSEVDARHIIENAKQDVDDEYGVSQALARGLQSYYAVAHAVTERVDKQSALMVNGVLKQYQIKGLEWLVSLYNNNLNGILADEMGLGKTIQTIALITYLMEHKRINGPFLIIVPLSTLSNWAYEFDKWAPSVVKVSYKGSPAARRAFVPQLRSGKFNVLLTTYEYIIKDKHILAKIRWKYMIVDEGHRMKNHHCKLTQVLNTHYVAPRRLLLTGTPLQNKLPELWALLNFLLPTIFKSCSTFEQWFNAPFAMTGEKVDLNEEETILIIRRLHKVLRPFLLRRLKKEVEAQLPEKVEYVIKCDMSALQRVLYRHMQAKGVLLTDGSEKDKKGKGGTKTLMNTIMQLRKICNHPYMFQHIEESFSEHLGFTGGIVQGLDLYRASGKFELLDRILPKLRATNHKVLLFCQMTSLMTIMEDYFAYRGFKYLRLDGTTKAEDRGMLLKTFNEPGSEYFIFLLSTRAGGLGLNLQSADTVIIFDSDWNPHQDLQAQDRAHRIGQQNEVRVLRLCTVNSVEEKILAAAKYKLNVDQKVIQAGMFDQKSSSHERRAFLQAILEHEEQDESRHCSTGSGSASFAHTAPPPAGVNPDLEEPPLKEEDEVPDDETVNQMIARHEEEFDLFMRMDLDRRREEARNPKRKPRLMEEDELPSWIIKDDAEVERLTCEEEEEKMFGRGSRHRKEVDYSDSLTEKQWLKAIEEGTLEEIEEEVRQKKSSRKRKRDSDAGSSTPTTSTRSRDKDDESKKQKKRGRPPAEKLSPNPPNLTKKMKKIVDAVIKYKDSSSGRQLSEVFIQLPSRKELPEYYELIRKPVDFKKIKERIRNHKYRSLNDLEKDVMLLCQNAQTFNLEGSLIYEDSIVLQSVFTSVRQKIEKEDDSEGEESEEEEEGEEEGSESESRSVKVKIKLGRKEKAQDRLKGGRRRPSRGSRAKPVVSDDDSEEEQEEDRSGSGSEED
UniProt Q9Y343: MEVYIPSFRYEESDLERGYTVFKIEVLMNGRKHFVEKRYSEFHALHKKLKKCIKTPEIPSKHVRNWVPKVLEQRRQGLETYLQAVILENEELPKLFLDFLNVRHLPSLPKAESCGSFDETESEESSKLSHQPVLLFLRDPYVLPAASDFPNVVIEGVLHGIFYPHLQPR

What was measured:
Assay in all cases: log2 fold change, soluble protein after heating vs DMSO (PISA); higher = thermal stabilisation; K562 lysate, 10 uM; active = over 0.2 and 3.5 SD of the protein, either way, in both replicates (recomputed)
[1] = compound: CN1CC[C@H](c2c(O)cc(O)c3c(=O)cc(-c4ccccc4Cl)oc23)[C@H](O)C1 [alvocidib]
Outline: (§1)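 Pellets of K562 cells were dounce-homogenised in PBS pH 7.4 with 1 mM MgCl2, and the crude extract was held at 1 mg/mL protein for a 30 min treatment with 10 μM compound. Aliquots were heated for 3 min over 48°C-58°C and pooled before NP-40 was added to 0.5% at 4°C. The supernatant from 21,000xg for 90 min was quantified by TMTpro 16plex LC-MS/MS with channel sums equalised. Values are reported from duplicates as log-two fold change in thermal stability relative to solvent controls.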

[2] = compound: CN1CCc2c(c3ccccc3n2Cc2ccc(C(=O)NO)cc2)C1 [Tubastatin A]
Outline: as §1

[3] = compound: COC(=O)N[C@@H](C)CNc1nccc(-c2cn(C(C)C)nc2-c2cc(Cl)cc(NS(C)(=O)=O)c2F)n1 [encorafenib]
Outline: as §1

[4] = compound: COC(=O)[C@H](CCSC)NC(=O)C1=C(C=C(C=C1)NC[C@H](CS)N)C2=CC=CC=C2
Outline: as §1

[5] = compound: CNC(=O)C1=CC=CC=C1NC2=NC(=NC=C2Cl)NC3=C(C=C(C=C3)N4CCOCC4)OC
Outline: as §1

[6] = compound: COc1cc(Nc2ncc3c(n2)-c2ccc(Cl)cc2C(c2c(F)cccc2OC)=NC3)ccc1C(=O)O [alisertib]
Outline: as §1

[7] = compound: COc1cc2nc(-c3cc(F)ccc3O)nc(N[C@@H]3CNC[C@H]3C(C)(C)O)c2cc1OC
Outline: as §1

[8] = compound: COc1cc2ncnc(Nc3ccc(F)c(Cl)c3)c2cc1OCCCN1CCOCC1 [gefitinib]
Outline: as §1

[9] = compound: CNC(=O)c1ccc(Nc2ncc(C(F)(F)F)c(NCc3nccnc3N(C)S(C)(=O)=O)n2)cc1 [defactinib]
Outline: as §1

[10] = compound: CNc1nc(-c2ccc3c(N)n[nH]c3c2)cc(N2C[C@@H](C(=O)NC3CCCCC3)CC[C@H]2C)n1
Outline: as §1

Measured: log2 fold change

SMR3B (UniProt P02814)
inactive: [1] 0.088 | [2] 0.34 | [3] -0.001 | [4] 0.185

SMIM1 (UniProt B2RUZ4)
inactive: [1] -0.031 | [2] 0.123 | [5] 0.097 | [3] 0.226 | [4] -0.07 | [6] -0.149 | [7] 0.022 | [8] -0.279

SOX7 isoform 2 (UniProt Q9BT81)
inactive: [1] 0.048 | [2] -0.259 | [5] 0.149 | [9] 0.102 | [6] -0.051 | [8] -0.082

SNX30 (UniProt Q5VWJ9)
inactive: [1] -0.012 | [2] -0.036 | [5] -0.004 | [10] -0.049 | [6] -0.06 | [7] 0.013 | [8] 0.1

SNUPN (UniProt O95149)
inactive: [1] 0.012 | [2] 0.028 | [5] -0.173 | [9] -0.066 | [3] 0.006 | [4] 0.155 | [6] -0.007 | [7] -0.009 | [8] 0.076

SMIM4 (UniProt Q8WVI0)
inactive: [1] 0.099 | [2] 0.008 | [6] 0.05 | [7] 0.088 | [8] 0.025

SMYD4 (UniProt Q8IYR2)
inactive: [1] -0.235 | [2] 0.02 | [5] -0.003 | [10] 0.077

SMARCA4 isoform 4 (UniProt P51532)
inactive: [1] 0.078 | [2] 0.106 | [5] -0.008 | [10] 0.024 | [3] -0.315 | [4] 0.04 | [6] -0.046 | [7] -0.038 | [8] -0.116

SNX24 (UniProt Q9Y343)
inactive: [1] 0.005 | [2] -0.09 | [5] 0.049 | [10] -0.09 | [3] 0.035 | [4] -0.072 | [6] 0.116 | [8] 0.175
